Assay results reported in article PMC4464074.
The exact form of at least one protein or probe is not confirmed.

Tests used:
[1] = target: RecQY555A (Escherichia coli) (UniProt P15043); assay: stopped-flow binding kinetics from ATPase lag (koff/kon); details: ATP (during ATPase cycling); SF50: 50 mM Tris-HCl pH 7.5, 50 mM NaCl, 1 mM DTT, 5 mM MgCl2, 50 µg/mL BSA, 25 °C; anisotropy with 10 nM forked duplex; recombinant protein; single-stranded DNA
[2] = target: RecQWT (Escherichia coli) (UniProt P15043); assay: as above; details: ATP (during ATPase cycling); SF50: 50 mM Tris-HCl pH 7.5, 50 mM NaCl, 1 mM DTT, 5 mM MgCl2, 50 µg/mL BSA, 25 °C; anisotropy with 10 nM forked duplex; recombinant protein; single-stranded DNA
[3] = target: RecQ523 (Escherichia coli) (UniProt P15043); assay: as above; details: ATP (during ATPase cycling); SF50: 50 mM Tris-HCl pH 7.5, 50 mM NaCl, 1 mM DTT, 5 mM MgCl2, 50 µg/mL BSA, 25 °C; anisotropy with 10 nM forked duplex; recombinant protein; residues 1-523; single-stranded DNA
[4] = target: RecQY555A (Escherichia coli) (UniProt P15043); assay: DNA dependence of steady-state ATPase (Pi release, MDCC-PBP stopped-flow), Kd,app; details: ATP (during ATPase cycling); SF50: 50 mM Tris-HCl pH 7.5, 50 mM NaCl, 1 mM DTT, 5 mM MgCl2, 50 µg/mL BSA, 25 °C; anisotropy with 10 nM forked duplex; recombinant protein; single-stranded DNA
[5] = target: RecQWT (Escherichia coli) (UniProt P15043); assay: as above; details: ATP (during ATPase cycling); SF50: 50 mM Tris-HCl pH 7.5, 50 mM NaCl, 1 mM DTT, 5 mM MgCl2, 50 µg/mL BSA, 25 °C; anisotropy with 10 nM forked duplex; recombinant protein; single-stranded DNA
[6] = target: RecQ523 (Escherichia coli) (UniProt P15043); assay: as above; details: ATP (during ATPase cycling); SF50: 50 mM Tris-HCl pH 7.5, 50 mM NaCl, 1 mM DTT, 5 mM MgCl2, 50 µg/mL BSA, 25 °C; anisotropy with 10 nM forked duplex; recombinant protein; residues 1-523; single-stranded DNA

Sequence: TTTTTTTTTTTTTTTTTTTTTTTTTTTTTTTTTTTTTTTTTTTTTTTTTTTTTT [dT54]
- Kd [1]: 5.7 µM (nt)
- Kd [2]: 4.6 µM (nt)
- Kd [3]: 5.4 µM (nt)
- half-maximal binding [4]: 3.1 µM (nt)
- half-maximal binding [5]: 1.2 µM (nt)
- half-maximal binding [6]: 2.2 µM (nt)
